Experimental findings from article doi:10.1101/668129 are described below.

The chains behind the UniProt entries cited, without tags or fusion partners.
UniProt P51617: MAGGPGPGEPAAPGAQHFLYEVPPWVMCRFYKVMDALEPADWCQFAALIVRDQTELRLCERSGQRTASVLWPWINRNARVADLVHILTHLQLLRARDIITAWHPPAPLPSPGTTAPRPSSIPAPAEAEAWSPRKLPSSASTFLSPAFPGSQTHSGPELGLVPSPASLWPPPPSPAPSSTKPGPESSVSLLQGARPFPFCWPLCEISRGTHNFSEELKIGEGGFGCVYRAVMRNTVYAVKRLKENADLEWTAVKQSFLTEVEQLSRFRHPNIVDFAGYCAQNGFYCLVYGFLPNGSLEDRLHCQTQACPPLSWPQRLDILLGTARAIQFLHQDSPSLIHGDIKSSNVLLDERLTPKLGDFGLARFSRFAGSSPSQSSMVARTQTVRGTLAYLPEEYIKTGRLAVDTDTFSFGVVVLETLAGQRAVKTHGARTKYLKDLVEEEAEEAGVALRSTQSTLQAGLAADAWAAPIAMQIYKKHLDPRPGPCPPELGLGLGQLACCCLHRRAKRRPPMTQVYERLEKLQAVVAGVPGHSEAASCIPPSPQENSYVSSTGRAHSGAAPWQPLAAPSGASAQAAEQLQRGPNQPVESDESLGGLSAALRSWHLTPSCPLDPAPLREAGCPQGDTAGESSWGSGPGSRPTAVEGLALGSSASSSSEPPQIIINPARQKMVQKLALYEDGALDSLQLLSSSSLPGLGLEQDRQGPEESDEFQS
UniProt O43639: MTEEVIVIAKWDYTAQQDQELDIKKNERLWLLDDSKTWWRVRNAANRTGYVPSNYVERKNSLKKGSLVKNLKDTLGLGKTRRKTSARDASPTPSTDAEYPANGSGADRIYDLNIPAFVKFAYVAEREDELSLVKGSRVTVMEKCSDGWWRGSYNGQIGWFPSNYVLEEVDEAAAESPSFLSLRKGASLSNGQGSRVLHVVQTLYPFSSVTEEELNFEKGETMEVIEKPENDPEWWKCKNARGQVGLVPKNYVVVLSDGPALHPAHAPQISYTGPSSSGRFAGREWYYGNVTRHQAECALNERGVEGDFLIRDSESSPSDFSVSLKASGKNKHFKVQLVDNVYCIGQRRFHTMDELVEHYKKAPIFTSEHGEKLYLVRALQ

No constants are given. Whether binding was seen depends on the method and setting. In cells and extracts the contact can be indirect.

This test deals with interleukin-1 type I receptor kinase-1 (IRAK-1) (human (endogenous in human endothelial cells)) (UniProt P51617). The experiment in a line: co-IP.

On to Nck2 (from UniProt O43639 1-380), for which the binding entry is “no binding”.
